Consider four sequences from PMC6737238.

For at least one entry, the source does not settle the construct or the ends of the probe. The comparison behind a weaker result is the experiment's own reference, which may not be listed here. Where a protein sequence is shown, tags need not be part of it. For some of these results: At least one verdict was read from the data and is not stated in words by the source.

Series [1] deals with T1, Tar (TK0271 protein) (Thermococcus kodakarensis KOD1) (UniProt Q5JFW7).
T1 sequence (looked up, limits assumed): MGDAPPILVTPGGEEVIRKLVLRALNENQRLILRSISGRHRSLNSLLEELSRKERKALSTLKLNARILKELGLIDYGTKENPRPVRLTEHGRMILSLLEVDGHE
The experiment in a line: EMSA. Conditions: EMSA: 0.4 nM biotinylated probe, 10 mM Tris-HCl pH 7.5, 1 mM DTT, 10 mM MgCl2, 400 mM KCl, 0.05% NP-40, 70C 10 min, 5% PAGE, 0.5x TBE, recombinant protein.

In series [2] the target is T2, TkTrpY (TK1227 protein) (Thermococcus kodakarensis KOD1) (UniProt Q5JGI5).
T2 sequence (looked up): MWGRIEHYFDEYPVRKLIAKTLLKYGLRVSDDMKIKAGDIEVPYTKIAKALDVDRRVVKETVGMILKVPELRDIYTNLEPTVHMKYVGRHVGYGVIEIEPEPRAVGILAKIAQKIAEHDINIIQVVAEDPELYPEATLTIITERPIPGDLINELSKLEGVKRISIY
Nature of the series: EMSA. Conditions: EMSA: 0.4 nM biotinylated probe, 10 mM Tris-HCl pH 7.5, 1 mM DTT, 10 mM MgCl2, 400 mM KCl, 0.05% NP-40, 70C 10 min, 5% PAGE, 0.5x TBE, recombinant protein, residues 1-166, label: 5'-biotin on reverse primer, probe letters rebuilt from the primers and the genome.

[3] abbreviates: dramatic decrease in affinity, label: 5'-biotin on strand 2 (primer S197, filled in).

For “GGTCTTTTTAGCTACTCCCTCGTACCCCTCAGCAGGTACGAAGCCTTATATCCCAACTCCCC (double strand) [M1]”, the binding result in series [1] (setting [3]) is reported as “binds more weakly”. Take “GACTTCGGCTTTCTGATGGTCGGAAGGGACGTGGAAAATGCGAACGAAGCGATAAAAATGTTTTTGGAGGAGGTTAAACGAGGGCCTTAACGCCCTCTCGGTCTTTTTAGCTACTCCCTTGGACACCTCAGCATGTCCAAAGCCTTATATCCCAACTCCCCCTTTTGACACCGGTGAGTTCAAATGGGTGATGGTTTTTGGATTAAGC (double strand) [trp promoter (TK0252)]”: the binding result in series [1] (5 mM erythrose 4-phosphate, majority of complex dissociated, label: 5'-biotin on reverse primer, probe letters rebuilt from the primers and the genome) is reported as “binds more weakly”; in series [1] (10 mM erythrose 4-phosphate, 20 nM protein, label: 5'-biotin on reverse primer, probe letters rebuilt from the primers and the genome), “binds more weakly”; in series [2] (10 mM Trp, binding not affected) it was “binds more weakly”; in series [2] (no specific binding, faint band at 50 nM protein) it was “binds more weakly”. As for “GGTCTTTTTAGCTACTCCCTTGGACACCTCAGCATGTCCAAAGCCTTATATCCCAACTCCCC (double strand) [sTK0252 (wild type)]”, in series [1] (label: 5'-biotin on strand 2 (primer S197, filled in)), the binding result was “binds”.

Turning to “GGTCTTTTTAGCTACTCCCTCTTCTCCCTCAGCAGAGAAGAAGCCTTATATCCCAACTCCCC (double strand) [M2]”, in series [1] (setting [3]), the binding result is recorded as “binds more weakly”.
